For the experiment, the target named is T1, OsCOI2 (Oryza sativa) (UniProt Q84QA7).
T1 sequence: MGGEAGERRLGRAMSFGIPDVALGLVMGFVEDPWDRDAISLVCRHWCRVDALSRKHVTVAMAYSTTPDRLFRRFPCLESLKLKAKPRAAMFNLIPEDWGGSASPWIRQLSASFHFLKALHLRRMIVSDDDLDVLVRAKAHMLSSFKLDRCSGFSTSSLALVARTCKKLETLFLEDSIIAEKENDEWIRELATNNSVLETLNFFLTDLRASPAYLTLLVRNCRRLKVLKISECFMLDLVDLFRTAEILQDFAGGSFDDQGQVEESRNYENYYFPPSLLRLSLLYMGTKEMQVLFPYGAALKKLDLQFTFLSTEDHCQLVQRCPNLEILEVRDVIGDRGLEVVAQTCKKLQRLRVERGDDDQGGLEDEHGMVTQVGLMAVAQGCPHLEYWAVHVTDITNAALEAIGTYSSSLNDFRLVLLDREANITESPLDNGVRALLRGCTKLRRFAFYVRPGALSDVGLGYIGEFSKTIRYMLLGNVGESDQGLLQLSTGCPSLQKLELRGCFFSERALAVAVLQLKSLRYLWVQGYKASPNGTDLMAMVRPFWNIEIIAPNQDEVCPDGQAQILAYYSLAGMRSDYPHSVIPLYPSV
Nature of the experiment: two-hybrid; OsCOIs as baits in pGBKT7, OsJAZs or JAZs as preys in pGADT7, co-transformed into S. cerevisiae AH109; growth on SD without Ade, His, Leu and Trp (QDO) with 100 µM coronatine, 7 days; graded strong (+++), medium (++), weak (+), undetectable (−).

No constants are given. Whether binding was seen depends on the method and setting.

In the case of “JAZ1 (Arabidopsis thaliana ecotype Columbia)”, the binding entry was “no binding”.

Regarding “JAZ2 (Arabidopsis thaliana ecotype Columbia)”, the binding entry is listed as “no binding”.

As for “JAZ5 (Arabidopsis thaliana ecotype Columbia)”, the binding result is given as “no binding”.

On to “JAZ6 (Arabidopsis thaliana ecotype Columbia)”, for which the binding result is given as “no binding”.

With “JAZ12 (Arabidopsis thaliana ecotype Columbia)”, the binding result is “no binding”.

Source of the values: paper PMC3540053.
